Laboratory results as given in article PMC2705800, “Nucleocytoplasmic Shuttling of the TACC Protein Mia1p/Alp7p Is Required for Remodeling of Microtubule Arrays during the Cell Cycle” (PLoS ONE, 2009).
Positions count from the first letter of the chain named. These are yes or no findings as the source states them, for the method shown. In cells and extracts the contact can be indirect. Some results given as binding are weak or reduced against the parent protein; the word gives no strength. Where a sequence is shown, tags or fusion partners need not be part of it.

Columns and labels:
MBP-Mia1p-MutNES4 = target: T1, MBP-Mia1p-MutNES4 (S. pombe, UniProt Q9URY2 1-474, L461A (AVAAMDQANA; Leu/Ile residues 461, 463, 468 and 470) | I463A (AVAAMDQANA; …); assay: pull-down; as a1, but the Alp14p-myc containing cellular extract was prepared from wild type cells; data not shown; only the target purified
T1 construct: Cloned into the pAD2a vector (MBP upstream of the multiple cloning site), as m1; also called Mia1-MutNES4; NES mutant version of Mia1p; source: E. coli BL21 (DE3) carrying the pG-KJE8 chaperone plasmid; not shown: MBP, N-terminal, kept
T1 sequence (looked up): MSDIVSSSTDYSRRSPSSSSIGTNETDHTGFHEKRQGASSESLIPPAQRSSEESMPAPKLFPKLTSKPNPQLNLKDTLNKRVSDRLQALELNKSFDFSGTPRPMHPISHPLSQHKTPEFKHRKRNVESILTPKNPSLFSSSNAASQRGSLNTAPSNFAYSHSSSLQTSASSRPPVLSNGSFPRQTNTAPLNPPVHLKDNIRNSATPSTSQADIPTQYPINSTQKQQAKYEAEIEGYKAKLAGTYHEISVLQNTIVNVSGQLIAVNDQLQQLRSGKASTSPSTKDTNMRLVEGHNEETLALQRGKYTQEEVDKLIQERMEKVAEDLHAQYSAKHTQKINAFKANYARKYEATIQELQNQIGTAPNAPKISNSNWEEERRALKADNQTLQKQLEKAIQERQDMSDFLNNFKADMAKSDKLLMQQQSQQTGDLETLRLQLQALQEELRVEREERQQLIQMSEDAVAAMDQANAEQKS

MBP-Mia1p (S. pombe) [1] = target: T2, MBP-Mia1p (S. pombe) (UniProt Q9URY2); assay: as above
T2 sequence: T1 sequence (looked up) with A461L, A463I, A468L, A470L

MBP-Mia1p (S. pombe) [2] = target: T2, MBP-Mia1p (S. pombe); assay: pull-down; MBP fusion held on amylose resin, incubated 1 hour at 4°C with soluble total lysate of Alp14p-13myc expressing mia1Δ S. pombe cells; Buffer A (20 mM Tris-HCl pH 7.4, 400 mM NaCl, 1 mM EDTA, 10 mM β-mercaptoethanol); washed 3 times; Alp14p-myc detected with anti-myc antibody, MBP proteins by Coomassie; only the target purified

binding (MBP-Mia1p-MutNES4): binds
binding (MBP-Mia1p (S. pombe) [1]): binds
binding (MBP-Mia1p (S. pombe) [2]): binds
B1: Alp14p-13myc (natural protein, S. pombe, UniProt O94534 1-809, looked up)
chain: MSQDQEEDYSKLPLESRIVHKVWKVRLSAYEECSKSFSLSADGSDNCFELWNNQSELWKSVLTDSNVAAQEAGTAAFVAYCRFSDPSHLLKAREISVLSISEKCLTSPRAGTRENALEALMLLVEADSAAPVIESIIPSLSARSPKVIASNVAAIASLVEQFGAKVIPSKMIIPHISNLFGHADKNVRKEASRLTVNIYRWTGDPLKDLLFKDLRPVQTKELESLFAELPTEPPKQTRFLKSQQPTSEPNVETQVEEQPALENEESEPEPSDDQFDLVEEVDVLPNVDPNLETLMASSKWKDRKEALDKLLPVLSQPKIKDNDFFNLVAILTKSVSKDANIMVVINAAHCIQAMAKGLRSNFSKYASTSINALLERSKEKKANVIESLSSAMDAVLATSSLDDLAELIASFAGNKNPQIKSSCFSLFSRSFSNMTSLPSKFTVDTCAKACVPGVSDTFEPVRSAAAEALGVLMKLVGERAINQYLSPLDDIRKSKIRSFYETATVKAKAPTKKSKVKPSKQEESKVVVPSNAKAVKKSVVPSSPVVPSPRKATNKSLSMDVSKGNAFENGPLLPRPTTRPVSRGLSRGTSSSLQQKVKASTPLNSGALNETVQNLKNMELDDPAPQPAKHSRVDRYEHPKVLEDNDSTISSLESLKRENEELREQLKVEHEENISMQKQLSELKGELNTLRSARKASPIGDRKPAFMRRANTDFLELSTSPSFQRSVREFEPTRPKLYSSIDVNQRSPLASAKTNGNFTFHAELPRSPFSSRANNINPDWTKAIDLAAKLKQKITEMKQTDQRHQGLIH
notes: Alp14p, TOG protein of Schizosaccharomyces pombe, partner of Mia1p/Alp7p; also called Alp14p-myc; Alp14p/TOG; source: S. pombe mia1Δ cells expressing Alp14p-13myc, total cell lysate
